Test results published in the supplement of paper PMC10849652.
The other results are listed elsewhere or left out.

The chains behind the UniProt entries cited, without tags or fusion partners. Where a name states a change or a piece, a line headed by the entry shows the natural chain unless it says otherwise.
UniProt Q07866: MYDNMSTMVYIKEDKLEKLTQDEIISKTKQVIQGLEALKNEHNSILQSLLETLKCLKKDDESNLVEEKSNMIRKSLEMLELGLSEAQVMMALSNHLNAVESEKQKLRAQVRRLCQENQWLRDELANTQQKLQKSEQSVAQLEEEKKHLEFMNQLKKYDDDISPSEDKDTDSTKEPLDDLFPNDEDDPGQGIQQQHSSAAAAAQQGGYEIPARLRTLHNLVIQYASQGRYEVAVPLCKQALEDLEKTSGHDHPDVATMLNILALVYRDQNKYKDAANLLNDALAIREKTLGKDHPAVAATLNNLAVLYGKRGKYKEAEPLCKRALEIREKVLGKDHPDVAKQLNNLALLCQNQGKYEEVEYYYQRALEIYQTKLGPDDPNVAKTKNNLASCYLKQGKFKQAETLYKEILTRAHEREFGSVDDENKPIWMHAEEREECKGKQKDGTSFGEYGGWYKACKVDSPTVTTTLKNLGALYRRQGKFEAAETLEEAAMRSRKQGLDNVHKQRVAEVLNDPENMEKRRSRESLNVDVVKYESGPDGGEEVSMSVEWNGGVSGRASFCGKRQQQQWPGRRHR
UniProt Q8N3Y3: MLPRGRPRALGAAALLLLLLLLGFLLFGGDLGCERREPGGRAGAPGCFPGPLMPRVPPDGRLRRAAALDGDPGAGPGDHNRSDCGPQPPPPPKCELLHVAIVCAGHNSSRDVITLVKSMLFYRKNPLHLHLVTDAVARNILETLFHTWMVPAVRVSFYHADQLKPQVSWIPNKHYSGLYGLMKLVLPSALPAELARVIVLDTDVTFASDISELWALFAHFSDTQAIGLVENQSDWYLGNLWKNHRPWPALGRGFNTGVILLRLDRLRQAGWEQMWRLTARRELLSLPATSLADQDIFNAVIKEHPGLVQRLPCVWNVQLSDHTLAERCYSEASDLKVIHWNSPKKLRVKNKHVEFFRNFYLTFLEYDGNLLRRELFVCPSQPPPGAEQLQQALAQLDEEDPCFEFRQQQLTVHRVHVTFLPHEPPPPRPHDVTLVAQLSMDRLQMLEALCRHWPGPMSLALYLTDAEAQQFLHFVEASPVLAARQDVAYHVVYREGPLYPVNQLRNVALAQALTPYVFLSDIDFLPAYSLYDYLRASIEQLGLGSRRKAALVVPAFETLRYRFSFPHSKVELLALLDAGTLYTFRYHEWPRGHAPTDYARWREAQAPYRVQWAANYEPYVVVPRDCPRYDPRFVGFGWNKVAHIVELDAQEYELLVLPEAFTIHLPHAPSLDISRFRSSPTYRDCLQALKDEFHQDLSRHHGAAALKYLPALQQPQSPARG
UniProt Q9GZZ8: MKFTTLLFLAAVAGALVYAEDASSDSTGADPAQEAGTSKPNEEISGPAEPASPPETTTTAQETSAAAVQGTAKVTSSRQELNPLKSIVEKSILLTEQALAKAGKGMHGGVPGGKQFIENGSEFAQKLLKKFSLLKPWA
UniProt O15131, whole entry, looked up: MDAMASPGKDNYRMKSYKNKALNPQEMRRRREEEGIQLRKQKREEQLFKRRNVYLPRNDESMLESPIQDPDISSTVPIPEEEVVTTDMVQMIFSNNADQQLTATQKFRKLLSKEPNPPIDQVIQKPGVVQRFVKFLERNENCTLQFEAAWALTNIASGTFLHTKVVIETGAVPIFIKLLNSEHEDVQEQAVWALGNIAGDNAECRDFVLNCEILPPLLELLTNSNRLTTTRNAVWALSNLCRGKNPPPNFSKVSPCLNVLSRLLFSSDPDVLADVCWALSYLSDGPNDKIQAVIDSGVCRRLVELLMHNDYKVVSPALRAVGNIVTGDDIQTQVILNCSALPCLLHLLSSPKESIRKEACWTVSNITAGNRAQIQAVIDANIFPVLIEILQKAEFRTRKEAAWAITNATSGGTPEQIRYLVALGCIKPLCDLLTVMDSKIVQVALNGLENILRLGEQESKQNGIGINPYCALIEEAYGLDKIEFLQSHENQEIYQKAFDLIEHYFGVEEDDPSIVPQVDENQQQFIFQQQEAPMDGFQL
UniProt Q8IXV7: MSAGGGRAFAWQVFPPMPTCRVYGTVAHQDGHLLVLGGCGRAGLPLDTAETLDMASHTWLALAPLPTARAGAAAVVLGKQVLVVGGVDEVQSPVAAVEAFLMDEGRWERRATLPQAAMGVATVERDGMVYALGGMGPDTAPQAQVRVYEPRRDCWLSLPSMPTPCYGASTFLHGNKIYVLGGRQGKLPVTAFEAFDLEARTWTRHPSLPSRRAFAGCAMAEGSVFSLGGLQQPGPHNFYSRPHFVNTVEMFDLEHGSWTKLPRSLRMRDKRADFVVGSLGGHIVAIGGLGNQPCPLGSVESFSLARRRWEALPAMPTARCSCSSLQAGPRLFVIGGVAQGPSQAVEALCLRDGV
UniProt Q9BVV6: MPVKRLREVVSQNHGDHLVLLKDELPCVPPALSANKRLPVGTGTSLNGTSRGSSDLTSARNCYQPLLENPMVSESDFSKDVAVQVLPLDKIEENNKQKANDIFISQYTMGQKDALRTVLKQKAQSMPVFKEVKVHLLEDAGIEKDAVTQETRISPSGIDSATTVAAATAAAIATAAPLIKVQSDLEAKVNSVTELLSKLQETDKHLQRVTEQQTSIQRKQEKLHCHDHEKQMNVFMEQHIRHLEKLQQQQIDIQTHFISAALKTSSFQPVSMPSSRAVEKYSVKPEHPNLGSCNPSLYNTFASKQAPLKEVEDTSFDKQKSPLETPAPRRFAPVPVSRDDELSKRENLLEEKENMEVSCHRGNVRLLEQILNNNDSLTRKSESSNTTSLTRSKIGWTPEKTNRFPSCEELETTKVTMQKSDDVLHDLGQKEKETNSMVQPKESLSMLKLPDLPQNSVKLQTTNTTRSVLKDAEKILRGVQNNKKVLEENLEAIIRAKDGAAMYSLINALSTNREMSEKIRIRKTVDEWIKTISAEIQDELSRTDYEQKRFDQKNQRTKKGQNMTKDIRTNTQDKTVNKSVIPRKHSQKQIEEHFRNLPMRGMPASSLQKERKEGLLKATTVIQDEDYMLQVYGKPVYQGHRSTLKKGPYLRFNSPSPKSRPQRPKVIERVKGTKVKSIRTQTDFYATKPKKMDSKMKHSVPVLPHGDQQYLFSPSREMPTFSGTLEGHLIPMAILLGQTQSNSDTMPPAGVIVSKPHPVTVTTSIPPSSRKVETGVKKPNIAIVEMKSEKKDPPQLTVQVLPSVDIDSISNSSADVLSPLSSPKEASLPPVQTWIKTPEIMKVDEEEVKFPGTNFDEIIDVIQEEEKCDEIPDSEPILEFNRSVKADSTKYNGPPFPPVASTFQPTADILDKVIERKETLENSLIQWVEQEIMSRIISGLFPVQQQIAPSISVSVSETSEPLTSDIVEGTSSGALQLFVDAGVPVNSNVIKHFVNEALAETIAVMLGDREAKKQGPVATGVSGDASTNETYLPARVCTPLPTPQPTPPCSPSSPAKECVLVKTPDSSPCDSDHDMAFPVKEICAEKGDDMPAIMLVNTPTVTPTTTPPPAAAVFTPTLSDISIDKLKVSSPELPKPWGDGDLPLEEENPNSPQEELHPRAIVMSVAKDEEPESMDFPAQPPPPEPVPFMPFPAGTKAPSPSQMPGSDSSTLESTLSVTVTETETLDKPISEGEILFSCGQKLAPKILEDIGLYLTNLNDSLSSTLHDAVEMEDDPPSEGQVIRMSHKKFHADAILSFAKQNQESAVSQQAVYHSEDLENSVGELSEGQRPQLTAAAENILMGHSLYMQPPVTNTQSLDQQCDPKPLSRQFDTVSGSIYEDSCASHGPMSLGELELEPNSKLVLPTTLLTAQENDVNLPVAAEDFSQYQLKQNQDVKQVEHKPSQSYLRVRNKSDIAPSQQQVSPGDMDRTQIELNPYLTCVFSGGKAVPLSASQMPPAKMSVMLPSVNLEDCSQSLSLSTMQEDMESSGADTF
UniProt P29375: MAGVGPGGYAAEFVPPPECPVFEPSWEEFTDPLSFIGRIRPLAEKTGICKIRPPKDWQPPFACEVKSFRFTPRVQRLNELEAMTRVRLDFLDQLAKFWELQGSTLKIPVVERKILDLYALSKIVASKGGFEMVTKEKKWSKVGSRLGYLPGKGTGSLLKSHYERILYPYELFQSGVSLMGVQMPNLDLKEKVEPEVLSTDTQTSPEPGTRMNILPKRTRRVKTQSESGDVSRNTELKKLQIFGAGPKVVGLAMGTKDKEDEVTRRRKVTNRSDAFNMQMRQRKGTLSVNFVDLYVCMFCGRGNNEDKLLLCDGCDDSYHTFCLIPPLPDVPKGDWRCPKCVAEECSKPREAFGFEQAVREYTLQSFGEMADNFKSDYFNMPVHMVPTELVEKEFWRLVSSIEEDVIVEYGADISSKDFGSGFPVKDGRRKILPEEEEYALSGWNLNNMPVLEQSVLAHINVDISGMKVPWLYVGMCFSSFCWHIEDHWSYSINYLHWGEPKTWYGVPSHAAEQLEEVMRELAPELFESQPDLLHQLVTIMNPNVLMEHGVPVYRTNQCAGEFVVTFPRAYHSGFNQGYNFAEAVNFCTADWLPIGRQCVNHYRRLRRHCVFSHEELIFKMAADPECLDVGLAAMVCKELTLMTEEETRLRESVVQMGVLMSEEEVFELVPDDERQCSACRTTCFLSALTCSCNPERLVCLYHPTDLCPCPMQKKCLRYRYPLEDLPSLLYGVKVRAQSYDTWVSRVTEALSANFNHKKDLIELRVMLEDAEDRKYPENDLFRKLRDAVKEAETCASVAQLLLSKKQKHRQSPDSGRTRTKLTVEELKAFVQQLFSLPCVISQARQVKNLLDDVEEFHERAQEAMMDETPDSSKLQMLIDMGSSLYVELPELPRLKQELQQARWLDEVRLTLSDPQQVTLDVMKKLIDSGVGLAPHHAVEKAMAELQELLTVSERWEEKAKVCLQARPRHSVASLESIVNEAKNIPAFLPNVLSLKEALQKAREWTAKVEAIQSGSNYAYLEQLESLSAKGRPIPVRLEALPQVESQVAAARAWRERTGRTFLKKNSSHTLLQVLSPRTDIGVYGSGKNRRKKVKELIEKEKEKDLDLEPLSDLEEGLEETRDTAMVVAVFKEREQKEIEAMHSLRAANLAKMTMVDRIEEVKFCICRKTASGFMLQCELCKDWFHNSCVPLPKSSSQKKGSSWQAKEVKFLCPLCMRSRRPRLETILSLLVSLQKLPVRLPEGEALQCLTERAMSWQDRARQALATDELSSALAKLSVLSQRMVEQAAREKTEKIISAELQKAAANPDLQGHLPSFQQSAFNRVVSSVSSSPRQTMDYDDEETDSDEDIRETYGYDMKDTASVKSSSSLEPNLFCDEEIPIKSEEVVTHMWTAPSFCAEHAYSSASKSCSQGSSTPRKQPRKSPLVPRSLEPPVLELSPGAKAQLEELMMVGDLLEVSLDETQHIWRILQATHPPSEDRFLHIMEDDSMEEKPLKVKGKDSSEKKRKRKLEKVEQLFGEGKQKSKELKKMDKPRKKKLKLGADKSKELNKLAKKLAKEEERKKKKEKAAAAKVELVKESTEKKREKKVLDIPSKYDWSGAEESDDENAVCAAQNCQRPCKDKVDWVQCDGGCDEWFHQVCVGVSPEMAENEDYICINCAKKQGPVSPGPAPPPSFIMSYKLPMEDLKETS
UniProt Q6TDP4, whole entry, looked up: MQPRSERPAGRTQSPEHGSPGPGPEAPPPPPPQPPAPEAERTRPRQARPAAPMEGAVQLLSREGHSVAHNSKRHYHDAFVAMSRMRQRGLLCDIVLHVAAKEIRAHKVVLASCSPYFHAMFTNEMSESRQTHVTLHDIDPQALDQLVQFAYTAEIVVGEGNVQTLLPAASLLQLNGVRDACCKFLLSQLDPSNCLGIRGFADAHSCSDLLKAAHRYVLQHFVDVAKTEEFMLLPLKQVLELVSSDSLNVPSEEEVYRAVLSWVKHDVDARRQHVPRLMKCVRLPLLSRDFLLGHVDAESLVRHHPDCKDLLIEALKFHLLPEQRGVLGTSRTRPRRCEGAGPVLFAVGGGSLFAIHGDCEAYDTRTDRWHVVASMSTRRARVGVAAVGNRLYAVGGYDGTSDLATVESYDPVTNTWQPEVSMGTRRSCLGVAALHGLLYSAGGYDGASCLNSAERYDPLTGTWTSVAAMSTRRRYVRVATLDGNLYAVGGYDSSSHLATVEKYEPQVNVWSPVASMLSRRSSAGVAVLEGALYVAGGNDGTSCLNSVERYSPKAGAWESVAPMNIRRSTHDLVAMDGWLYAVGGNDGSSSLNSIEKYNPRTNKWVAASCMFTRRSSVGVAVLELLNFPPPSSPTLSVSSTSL
UniProt Q9Y2Y9: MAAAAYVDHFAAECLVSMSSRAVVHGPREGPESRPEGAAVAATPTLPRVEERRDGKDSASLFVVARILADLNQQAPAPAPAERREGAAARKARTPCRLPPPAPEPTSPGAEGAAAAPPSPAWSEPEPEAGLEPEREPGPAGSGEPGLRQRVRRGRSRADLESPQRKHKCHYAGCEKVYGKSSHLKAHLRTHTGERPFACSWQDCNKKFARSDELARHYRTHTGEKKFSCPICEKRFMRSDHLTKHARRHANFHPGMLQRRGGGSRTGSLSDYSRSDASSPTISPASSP

Legend:
Test in all cases: log2 fold change, soluble protein after heating vs DMSO (PISA); higher = thermal stabilisation; K562 lysate, 10 uM; active = over 0.2 and 3.5 SD of the protein, either way, in both replicates (recomputed)
[1] = compound: CC[C@@H]1C(=O)N(C)c2cnc(Nc3ccc(C(=O)NC4CCN(C)CC4)cc3OC)nc2N1C1CCCC1
Outline: (§1)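 Dounce homogenisation of K562 pellets in PBS pH 7.4 with 1 mM MgCl2 produced a crude extract, used at 1 mg/mL protein. Exposure to 10 μM compound lasted 30 min, and aliquots were then heated for 3 min across 48°C-58°C, pooled and brought to 0.5% NP-40 at 4°C. The supernatant after 21,000xg for 90 min was quantified by TMTpro 16plex LC-MS/MS with channel sums equalised. Duplicate values are given as log-two fold change in thermal stability relative to solvent controls.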

[2] = compound: CCn1cc(-c2ccnc3[nH]c(-c4cccc(CN(C)C)c4)cc23)c(-c2ccc(NC(=O)N(C)C)cc2)n1
Outline: as §1

[3] = compound: CN1CCC(CNc2ccc3ncc(-c4cccc(OC(F)(F)F)c4)n3n2)CC1
Outline: as §1

saracatinib = compound: CN1CCN(CCOc2cc(OC3CCOCC3)c3c(Nc4c(Cl)ccc5c4OCO5)ncnc3c2)CC1 [saracatinib]
Outline: as §1

sotrastaurin = compound: CN1CCN(c2nc(C3=C(c4c[nH]c5ccccc45)C(=O)NC3=O)c3ccccc3n2)CC1 [sotrastaurin]
Outline: as §1

alvocidib = compound: CN1CC[C@H](c2c(O)cc(O)c3c(=O)cc(-c4ccccc4Cl)oc23)[C@H](O)C1 [alvocidib]
Outline: as §1

[4] = compound: CNc1nc(-c2ccc3c(N)n[nH]c3c2)cc(N2C[C@@H](C(=O)NC3CCCCC3)CC[C@H]2C)n1
Outline: as §1

encorafenib = compound: COC(=O)N[C@@H](C)CNc1nccc(-c2cn(C(C)C)nc2-c2cc(Cl)cc(NS(C)(=O)=O)c2F)n1 [encorafenib]
Outline: as §1

[5] = compound: COC(=O)[C@H](CCSC)NC(=O)C1=C(C=C(C=C1)NC[C@H](CS)N)C2=CC=CC=C2
Outline: as §1

alisertib = compound: COc1cc(Nc2ncc3c(n2)-c2ccc(Cl)cc2C(c2c(F)cccc2OC)=NC3)ccc1C(=O)O [alisertib]
Outline: as §1

gefitinib = compound: COc1cc2ncnc(Nc3ccc(F)c(Cl)c3)c2cc1OCCCN1CCOCC1 [gefitinib]
Outline: as §1

[6] = compound: CCn1c(C(=O)N(C2CC2)C2CC2)cc2c3c(ncn3C)c(Nc3cc(C)n(C)n3)nc21
Outline: as §1

Tubastatin A = compound: CN1CCc2c(c3ccccc3n2Cc2ccc(C(=O)NO)cc2)C1 [Tubastatin A]
Outline: as §1

barasertib = compound: CCN(CCCOc1ccc2c(Nc3cc(CC(=O)Nc4cccc(F)c4)[nH]n3)ncnc2c1)CCOP(=O)(O)O [barasertib]
Outline: as §1

[7] = compound: CNC(=O)C1=CC=CC=C1NC2=NC(=NC=C2Cl)NC3=C(C=C(C=C3)N4CCOCC4)OC
Outline: as §1

[8] = compound: CCCS(=O)(=O)Nc1ccc(F)c(C(=O)c2c[nH]c3ncc(Cl)cc23)c1F
Outline: as §1

volasertib = compound: CC[C@@H]1C(=O)N(C)c2cnc(Nc3ccc(C(=O)N[C@H]4CC[C@H](N5CCN(CC6CC6)CC5)CC4)cc3OC)nc2N1C(C)C [volasertib]
Outline: as §1

[9] = compound: COc1cc2nc(-c3cc(F)ccc3O)nc(N[C@@H]3CNC[C@H]3C(C)(C)O)c2cc1OC
Outline: as §1

Measured: log2 fold change

L3MBTL2 (UniProt Q969R5)
inactive: [1] -0.068 | [2] 0.059 | [3] 0.178 | saracatinib -0.031 | sotrastaurin 0.005 | alvocidib -0.221 | [4] -0.285 | encorafenib 0.031 | [5] 0.014 | alisertib -0.037 | gefitinib -0.052

KLF3 (UniProt P57682)
inactive: [1] 0.193 | [6] 0.009 | sotrastaurin -0.096 | Tubastatin A -0.121 | encorafenib 0.019 | [5] -0.145 | alisertib -0.002 | gefitinib 0.216

KLC1 isoform 10 (UniProt Q07866)
inactive: barasertib 0.238 | [1] 0.152 | [7] 0.147 | encorafenib 0.06 | [5] -0.109

LARGE2 (UniProt Q8N3Y3)
inactive: [2] -0.087 | [3] 0.157 | alvocidib -0.062 | alisertib 0.041 | gefitinib -0.152

LAMP2 isoform 2 (UniProt P13473)
inactive: barasertib -0.073 | [6] 0.028 | [2] 0.087 | [3] -0.081 | sotrastaurin 0.002 | alvocidib 0.133 | Tubastatin A 0.018 | [7] -0.021 | alisertib 0.02 | gefitinib -0.003

LACRT (UniProt Q9GZZ8)
inactive: [8] -0.045 | volasertib 0.233 | [7] 0.227 | [9] 0.014

KPNA5 (UniProt O15131)
inactive: [7] -0.003 | alisertib -0.096 | gefitinib 0.047

KDM4C (UniProt Q9H3R0)
inactive: barasertib 0.115 | [6] 0.183 | [2] 0.066 | [3] -0.091 | saracatinib 0.091 | alvocidib -0.025 | Tubastatin A -0.212 | [4] -0.187 | alisertib -0.066 | gefitinib 0.079

LAMA5 (UniProt O15230)
inactive: barasertib -0.321 | [1] -0.044 | [6] -0.012 | [2] 0.009 | [3] 0.104 | saracatinib -0.051 | sotrastaurin 0.05 | alvocidib 0.065 | Tubastatin A -0.03 | [7] 0.063 | [4] 0.01 | encorafenib 0.07 | [5] 0.077

LAPTM4B (UniProt Q86VI4)
inactive: barasertib -0.027 | [6] -0.016 | [2] -0.233 | [3] 0.309 | alvocidib -0.161 | Tubastatin A 0.083 | [7] -0.029

KRT87P (UniProt A6NCN2)
inactive: [7] 0.037

Two successive records out of the list so far, quoted:
KLC1 isoform 10 (UniProt Q07866)
inactive: barasertib 0.238 | [1] 0.152 | [7] 0.147 | encorafenib 0.06 | [5] -0.109

LARGE2 (UniProt Q8N3Y3)
inactive: [2] -0.087 | [3] 0.157 | alvocidib -0.062 | alisertib 0.041 | gefitinib -0.152

Later entries.

KIF1B isoform 3 (UniProt O60333)
inactive: barasertib 0.101 | [1] 0.236 | [6] -0.262 | [2] -0.081 | [3] 0.025 | saracatinib -0.084 | sotrastaurin 0.005 | alvocidib -0.069 | Tubastatin A -0.086 | [7] -0.03 | [4] -0.01 | encorafenib -0.142 | [5] 0 | alisertib -0.02 | gefitinib -0.214

KMT2D (UniProt O14686)
inactive: saracatinib -0.325 | [4] 0.059

KPNB1 (UniProt J3QKQ5)
inactive: [6] -0.015 | Tubastatin A 0.158

KLHDC8B (UniProt Q8IXV7)
inactive: [1] 0.018 | [6] 0.003 | saracatinib -0.039 | sotrastaurin 0.037 | Tubastatin A 0.16 | [7] 0.028 | [4] 0.047 | encorafenib 0 | [5] 0.154 | alisertib 0.236 | gefitinib 0.206

KIAA0586 isoform 3 (UniProt Q9BVV6)
inactive: [6] 0.093 | saracatinib 0.017 | sotrastaurin 0.181 | Tubastatin A -0.108 | [7] 0.017 | [4] 0.036 | alisertib 0.216 | gefitinib -0.032

KDM5A (UniProt P29375)
inactive: [6] -0.063 | [2] 0.06 | [3] 0.13 | saracatinib 0.148 | sotrastaurin -0.072 | alvocidib -0.03 | Tubastatin A -0.173 | [4] 0.152

KMT5A (UniProt Q9NQR1)
inactive: [2] 0.174 | [3] -0.168 | alvocidib 0.009

KIFAP3 (UniProt Q92845)
inactive: barasertib -0.237 | [1] 0.043 | [6] 0.068 | [2] -0.073 | [3] 0.067 | saracatinib -0.014 | sotrastaurin 0.002 | alvocidib 0.097 | Tubastatin A -0.024 | [4] 0.048 | encorafenib 0.043 | [5] -0.261 | alisertib -0.032 | gefitinib -0.196

KISS1R (UniProt Q969F8)
inactive: sotrastaurin -0.109 | alisertib -0.05 | gefitinib -0.073

KIAA0556 (UniProt O60303)
inactive: alisertib -0.004 | gefitinib 0.299

KRT13 (UniProt K7EMD9)
inactive: barasertib -0.115 | [6] -0.272 | Tubastatin A 0.286 | [7] 0.071

LAMB2 (UniProt P55268)
inactive: [1] -0.037 | saracatinib -0.105 | [7] -0.278 | [4] 0.179 | encorafenib -0.005 | [5] -0.008

KLHL17 (UniProt Q6TDP4)
inactive: barasertib -0.036 | [1] -0.056 | [6] 0.111 | [2] 0 | [3] 0.004 | alvocidib 0.009 | Tubastatin A 0.008 | [7] 0.165 | encorafenib -0.141 | [5] 0.034

KLF13 (UniProt Q9Y2Y9)
inactive: sotrastaurin -0.09

KRAS isoform 2 (UniProt P01116)
inactive: [8] 0.019 | [1] 0.156 | volasertib -0.125 | [6] 0.077 | saracatinib -0.06 | sotrastaurin -0.013 | Tubastatin A 0.076 | [7] -0.037 | [4] 0.046 | encorafenib -0.109 | [5] -0.062 | [9] 0.019

KIF18B (UniProt Q86Y91)
inactive: [8] 0.017 | [1] 0.221 | volasertib -0.046 | saracatinib 0.04 | sotrastaurin 0.106 | [4] -0.067 | encorafenib -0.159 | [5] -0.04 | [9] 0.046

KMT2B (UniProt Q9UMN6)
inactive: [1] -0.1 | saracatinib 0.081 | sotrastaurin -0.206 | [7] -0.083 | [4] 0.246 | encorafenib 0.127 | [5] -0.008

KIF2A isoform 2 (UniProt O00139)
inactive: [2] 0.129 | [3] 0.316 | alvocidib 0.153
